{"source": "patent EP0109697B1", "about": "“Rodent bait” (priority 1982, dated 1984)", "key": {"[1]": {"tested_on": "rats with a body weight approximately 250 g", "assay": "No-choice feeding test of three 100 ppm aldicarb presentations (Example 9), rats", "type": "in vivo, rat", "settings": "after 5 days", "procedure": "(§1) Three baits were produced containing the toxicant aldicarb, each at 100 ppm (0.01%) concentration. Aldicarb was presented in the bait either homogeneously dispersed in the manner of a conventional rodenticide, as discrete 0.4 x 0.4 mm particles, (formulation C) or as discrete 1.0 x 1.0 mm particles. The diluent was medium grade oatmeal in all cases. Tests were carried out on mice with a body weight approximately 20 g, rats with a body weight approximately 250 g, and rabbits with a body weight approximately 2,500 g.\n(§2) Baits were offered with no choice of alternative food for five days."}, "[2]": {"tested_on": "rabbits with a body weight approximately 2,500 g", "type": "in vivo, rabbit", "settings": "no choice, after 5 days", "procedure": "as §1, §2"}, "[3]": {"settings": "100 ppm as 1.0 × 1.0 mm particles"}}, "note": "Where two headings read alike, the source gives them in different places."}
{"smiles": "CNC(=O)O/N=C/C(C)(C)SC", "note": "[aldicarb, 2 methyl-2-(methylthio) propionaldehyde 0-(methylcarbamoyl) oxime]", "values": [{"measurement": "Rat Take", "setting": "[1]; 100 ppm as 0.4 × 0.4 mm particles (formulation C)", "result": 3.4, "unit": "g/day"}, {"measurement": "Rat Take", "setting": "[1]; [3]", "result": 9.9, "unit": "g/day"}, {"measurement": "Rat Take", "setting": "[1]; 100 ppm as HOMOGENEOUS", "result": 1.9, "unit": "g/day"}, {"measurement": "Rabbit Take", "setting": "[2]; [3]", "result": 11.4, "unit": "g/day"}, {"measurement": "Rabbit Take", "setting": "[2]; 100 ppm as HOMOGENEOUS", "result": 14.2, "unit": "g/day"}]}
